Experimental data reported in the supplement of paper PMC10849652.
Some of the results follow.

Amino acid sequences for entries named in this document (tags omitted). A change or cut given only in a name is not applied to a line headed by its entry.
UniProt Q9Y2Z2: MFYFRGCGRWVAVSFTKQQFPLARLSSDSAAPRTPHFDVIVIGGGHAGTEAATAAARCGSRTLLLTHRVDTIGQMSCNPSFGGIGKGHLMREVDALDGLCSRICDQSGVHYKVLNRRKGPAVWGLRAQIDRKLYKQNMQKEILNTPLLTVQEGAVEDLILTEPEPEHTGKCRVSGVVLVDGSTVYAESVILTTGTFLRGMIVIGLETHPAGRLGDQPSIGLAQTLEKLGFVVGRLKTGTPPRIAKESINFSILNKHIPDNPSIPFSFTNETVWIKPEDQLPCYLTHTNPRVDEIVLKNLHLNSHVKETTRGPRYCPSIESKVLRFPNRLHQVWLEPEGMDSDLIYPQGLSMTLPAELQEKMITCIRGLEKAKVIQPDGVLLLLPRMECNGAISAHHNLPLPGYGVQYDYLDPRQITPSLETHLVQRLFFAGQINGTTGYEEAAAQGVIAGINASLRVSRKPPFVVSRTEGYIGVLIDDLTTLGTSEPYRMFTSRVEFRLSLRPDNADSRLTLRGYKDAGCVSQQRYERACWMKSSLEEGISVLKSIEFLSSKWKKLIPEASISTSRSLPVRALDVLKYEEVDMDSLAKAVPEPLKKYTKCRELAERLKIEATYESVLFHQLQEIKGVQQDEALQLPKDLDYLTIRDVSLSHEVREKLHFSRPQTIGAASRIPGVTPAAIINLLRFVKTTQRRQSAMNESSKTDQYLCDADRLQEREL
UniProt Q13615: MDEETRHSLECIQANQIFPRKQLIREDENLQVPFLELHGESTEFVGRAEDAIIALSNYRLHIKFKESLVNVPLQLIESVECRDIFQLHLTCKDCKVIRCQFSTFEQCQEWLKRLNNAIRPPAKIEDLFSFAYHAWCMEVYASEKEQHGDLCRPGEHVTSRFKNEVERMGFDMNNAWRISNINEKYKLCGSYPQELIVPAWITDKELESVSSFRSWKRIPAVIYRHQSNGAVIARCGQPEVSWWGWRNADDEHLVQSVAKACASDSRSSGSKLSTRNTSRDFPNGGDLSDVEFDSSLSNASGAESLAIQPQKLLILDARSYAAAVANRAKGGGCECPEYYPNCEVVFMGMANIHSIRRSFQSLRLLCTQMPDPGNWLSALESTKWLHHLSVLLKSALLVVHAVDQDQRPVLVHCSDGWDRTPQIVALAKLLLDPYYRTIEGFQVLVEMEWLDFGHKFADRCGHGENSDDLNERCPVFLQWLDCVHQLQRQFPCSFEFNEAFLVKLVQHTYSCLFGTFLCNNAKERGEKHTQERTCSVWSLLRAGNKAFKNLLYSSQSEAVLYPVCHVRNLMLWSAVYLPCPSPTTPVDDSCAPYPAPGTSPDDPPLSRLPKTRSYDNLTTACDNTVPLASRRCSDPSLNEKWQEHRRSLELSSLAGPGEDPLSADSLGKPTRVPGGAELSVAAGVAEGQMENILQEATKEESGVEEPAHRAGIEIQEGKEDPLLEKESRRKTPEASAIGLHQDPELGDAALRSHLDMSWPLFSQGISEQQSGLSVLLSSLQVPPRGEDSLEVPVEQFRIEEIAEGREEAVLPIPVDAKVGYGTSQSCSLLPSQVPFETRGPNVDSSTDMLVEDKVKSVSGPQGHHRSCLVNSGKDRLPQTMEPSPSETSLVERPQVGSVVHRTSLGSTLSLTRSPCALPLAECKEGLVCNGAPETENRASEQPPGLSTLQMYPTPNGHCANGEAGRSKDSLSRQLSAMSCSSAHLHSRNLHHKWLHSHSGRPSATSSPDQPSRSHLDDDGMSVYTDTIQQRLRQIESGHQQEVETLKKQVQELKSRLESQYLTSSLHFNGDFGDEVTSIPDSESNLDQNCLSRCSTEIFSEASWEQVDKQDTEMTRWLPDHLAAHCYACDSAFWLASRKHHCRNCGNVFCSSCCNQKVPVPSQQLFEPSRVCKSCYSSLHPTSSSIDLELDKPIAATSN
UniProt P20585: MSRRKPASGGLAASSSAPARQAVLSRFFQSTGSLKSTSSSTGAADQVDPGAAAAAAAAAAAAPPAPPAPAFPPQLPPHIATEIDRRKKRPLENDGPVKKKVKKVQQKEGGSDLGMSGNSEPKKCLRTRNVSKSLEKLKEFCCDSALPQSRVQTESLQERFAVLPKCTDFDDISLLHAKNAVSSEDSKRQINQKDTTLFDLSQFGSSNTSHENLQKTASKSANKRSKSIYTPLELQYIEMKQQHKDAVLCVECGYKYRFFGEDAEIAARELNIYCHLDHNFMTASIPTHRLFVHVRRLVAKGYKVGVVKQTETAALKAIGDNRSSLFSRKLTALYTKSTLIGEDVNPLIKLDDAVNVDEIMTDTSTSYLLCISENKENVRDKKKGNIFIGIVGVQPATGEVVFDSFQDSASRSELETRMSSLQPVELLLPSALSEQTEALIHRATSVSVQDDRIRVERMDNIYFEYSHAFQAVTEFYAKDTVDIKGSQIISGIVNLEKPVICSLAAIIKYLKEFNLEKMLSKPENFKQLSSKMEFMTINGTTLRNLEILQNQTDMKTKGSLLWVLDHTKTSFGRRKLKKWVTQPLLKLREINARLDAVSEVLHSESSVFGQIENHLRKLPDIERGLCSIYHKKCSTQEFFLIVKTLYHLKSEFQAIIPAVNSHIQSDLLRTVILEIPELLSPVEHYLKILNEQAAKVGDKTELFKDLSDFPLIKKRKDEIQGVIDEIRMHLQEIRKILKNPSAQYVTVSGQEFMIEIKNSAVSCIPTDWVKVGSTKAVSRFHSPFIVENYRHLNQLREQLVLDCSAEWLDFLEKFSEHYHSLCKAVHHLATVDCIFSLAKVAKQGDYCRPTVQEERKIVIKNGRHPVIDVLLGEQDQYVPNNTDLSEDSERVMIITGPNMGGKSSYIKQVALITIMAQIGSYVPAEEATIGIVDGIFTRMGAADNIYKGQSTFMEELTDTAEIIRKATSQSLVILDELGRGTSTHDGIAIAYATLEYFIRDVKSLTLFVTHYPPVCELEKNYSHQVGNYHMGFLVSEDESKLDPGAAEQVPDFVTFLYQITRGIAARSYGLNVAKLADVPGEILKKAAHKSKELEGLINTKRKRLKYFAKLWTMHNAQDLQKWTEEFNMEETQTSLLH
UniProt P42285: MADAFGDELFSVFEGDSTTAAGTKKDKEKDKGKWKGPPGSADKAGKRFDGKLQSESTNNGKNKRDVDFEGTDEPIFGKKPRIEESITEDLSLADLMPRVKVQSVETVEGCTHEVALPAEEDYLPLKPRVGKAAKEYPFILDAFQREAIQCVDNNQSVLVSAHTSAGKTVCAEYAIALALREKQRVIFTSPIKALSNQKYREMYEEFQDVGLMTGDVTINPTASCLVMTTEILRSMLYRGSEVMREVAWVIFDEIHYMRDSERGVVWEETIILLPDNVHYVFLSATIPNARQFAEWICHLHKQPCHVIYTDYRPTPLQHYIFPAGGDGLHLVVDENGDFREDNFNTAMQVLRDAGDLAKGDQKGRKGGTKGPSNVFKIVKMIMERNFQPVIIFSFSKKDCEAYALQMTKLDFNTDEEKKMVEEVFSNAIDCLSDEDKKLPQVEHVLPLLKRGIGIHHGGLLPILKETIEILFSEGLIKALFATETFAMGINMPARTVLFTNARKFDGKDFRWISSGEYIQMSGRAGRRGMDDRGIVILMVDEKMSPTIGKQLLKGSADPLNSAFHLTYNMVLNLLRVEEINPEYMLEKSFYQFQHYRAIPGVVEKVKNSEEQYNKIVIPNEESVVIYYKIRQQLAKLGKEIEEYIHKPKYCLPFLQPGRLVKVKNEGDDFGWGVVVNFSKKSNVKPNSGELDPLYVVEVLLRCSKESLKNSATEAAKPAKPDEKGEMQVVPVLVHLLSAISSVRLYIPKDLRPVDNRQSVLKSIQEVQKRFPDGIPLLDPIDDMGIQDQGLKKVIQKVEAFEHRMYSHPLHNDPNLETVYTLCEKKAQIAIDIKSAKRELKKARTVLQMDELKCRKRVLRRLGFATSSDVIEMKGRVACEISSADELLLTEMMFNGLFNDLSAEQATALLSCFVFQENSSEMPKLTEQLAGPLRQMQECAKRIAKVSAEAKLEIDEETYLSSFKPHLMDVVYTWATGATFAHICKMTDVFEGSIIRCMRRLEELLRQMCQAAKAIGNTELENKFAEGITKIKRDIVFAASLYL
UniProt P13995: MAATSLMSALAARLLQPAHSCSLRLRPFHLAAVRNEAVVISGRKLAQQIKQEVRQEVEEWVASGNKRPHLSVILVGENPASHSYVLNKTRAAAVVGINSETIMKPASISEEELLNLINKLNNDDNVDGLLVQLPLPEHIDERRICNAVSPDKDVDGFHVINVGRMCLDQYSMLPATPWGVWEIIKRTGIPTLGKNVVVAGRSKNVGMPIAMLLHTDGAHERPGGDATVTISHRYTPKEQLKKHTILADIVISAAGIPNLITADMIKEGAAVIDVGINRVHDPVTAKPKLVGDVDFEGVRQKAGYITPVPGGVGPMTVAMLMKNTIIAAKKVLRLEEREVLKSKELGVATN
UniProt P60660, whole entry, looked up: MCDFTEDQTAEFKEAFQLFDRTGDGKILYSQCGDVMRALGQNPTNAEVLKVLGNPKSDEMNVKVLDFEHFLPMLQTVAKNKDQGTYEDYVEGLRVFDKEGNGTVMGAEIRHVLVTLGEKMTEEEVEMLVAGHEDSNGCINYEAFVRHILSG
UniProt Q13330: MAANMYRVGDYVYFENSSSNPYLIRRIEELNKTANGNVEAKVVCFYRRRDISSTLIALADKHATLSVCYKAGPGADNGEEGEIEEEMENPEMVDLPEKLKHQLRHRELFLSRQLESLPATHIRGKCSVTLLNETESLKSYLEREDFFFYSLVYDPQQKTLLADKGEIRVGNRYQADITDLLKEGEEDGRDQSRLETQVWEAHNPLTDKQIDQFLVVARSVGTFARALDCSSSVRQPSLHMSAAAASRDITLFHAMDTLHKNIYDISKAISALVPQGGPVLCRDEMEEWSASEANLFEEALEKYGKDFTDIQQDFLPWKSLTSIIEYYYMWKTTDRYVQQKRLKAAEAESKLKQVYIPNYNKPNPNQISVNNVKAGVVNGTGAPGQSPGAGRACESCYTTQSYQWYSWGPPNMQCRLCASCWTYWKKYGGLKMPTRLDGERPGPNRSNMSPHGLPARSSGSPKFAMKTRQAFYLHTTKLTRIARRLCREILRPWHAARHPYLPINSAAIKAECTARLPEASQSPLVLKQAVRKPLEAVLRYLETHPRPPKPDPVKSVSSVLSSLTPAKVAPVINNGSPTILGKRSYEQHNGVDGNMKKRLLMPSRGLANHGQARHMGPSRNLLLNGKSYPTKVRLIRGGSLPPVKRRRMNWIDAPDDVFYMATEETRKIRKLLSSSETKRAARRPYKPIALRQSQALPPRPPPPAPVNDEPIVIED
UniProt P49914: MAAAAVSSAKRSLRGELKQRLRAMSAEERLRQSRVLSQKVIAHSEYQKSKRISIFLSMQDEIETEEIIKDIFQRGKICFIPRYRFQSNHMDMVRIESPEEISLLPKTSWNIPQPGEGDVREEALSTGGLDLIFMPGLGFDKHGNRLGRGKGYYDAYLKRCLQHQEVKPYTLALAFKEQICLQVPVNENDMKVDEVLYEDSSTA
UniProt Q03426, whole entry, looked up: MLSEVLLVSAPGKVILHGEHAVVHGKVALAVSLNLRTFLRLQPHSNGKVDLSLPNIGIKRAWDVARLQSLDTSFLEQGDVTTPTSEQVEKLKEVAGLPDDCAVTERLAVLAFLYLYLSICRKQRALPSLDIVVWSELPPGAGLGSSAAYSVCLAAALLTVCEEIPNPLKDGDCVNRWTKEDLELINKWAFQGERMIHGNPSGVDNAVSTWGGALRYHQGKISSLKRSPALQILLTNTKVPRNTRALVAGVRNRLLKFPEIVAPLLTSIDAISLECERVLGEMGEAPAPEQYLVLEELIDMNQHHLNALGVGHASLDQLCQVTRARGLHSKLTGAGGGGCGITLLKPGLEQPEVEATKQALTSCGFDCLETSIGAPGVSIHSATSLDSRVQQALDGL
UniProt P03923, whole entry, looked up: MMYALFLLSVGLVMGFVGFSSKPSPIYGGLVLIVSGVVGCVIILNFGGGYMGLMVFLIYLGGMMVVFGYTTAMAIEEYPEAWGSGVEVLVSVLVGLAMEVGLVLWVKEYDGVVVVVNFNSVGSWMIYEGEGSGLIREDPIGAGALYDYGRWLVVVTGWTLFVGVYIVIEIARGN
UniProt P00846: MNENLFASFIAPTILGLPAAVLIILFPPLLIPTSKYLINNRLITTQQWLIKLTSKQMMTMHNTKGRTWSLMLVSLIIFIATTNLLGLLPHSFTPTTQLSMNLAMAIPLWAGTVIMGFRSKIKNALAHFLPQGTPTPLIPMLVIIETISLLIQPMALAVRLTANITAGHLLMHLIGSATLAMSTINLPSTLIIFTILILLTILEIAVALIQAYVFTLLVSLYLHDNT
UniProt P13640: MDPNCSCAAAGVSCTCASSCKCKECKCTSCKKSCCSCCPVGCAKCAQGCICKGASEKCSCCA

Key:
Test in all cases: log2 fold change, soluble protein after heating vs DMSO (PISA); higher = thermal stabilisation; K562 cells, 10 uM, 30 min; active = over 0.2 and 3.5 SD of the protein, either way, in both replicates (recomputed)
[1] = compound: CS(=O)(=O)c1ccc(-c2cnc(N)c(C(=O)Nc3ccccc3)n2)cc1
Method in brief: (§1)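 K562 cells at 2×10^6 cells/mL were treated with 10 μM compound for 30 min. Aliquots were heated for 3 min across 48°C-58°C, pooled, and extracted in PBS with 0.5% NP-40 at 4°C; soluble protein was the supernatant after 21,000xg for 90 min. Soluble protein was quantified by TMTpro 16plex LC-MS/MS with channel sums equalised, and reported as log2 fold change in thermal stability against DMSO controls, with values from duplicates.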

crizotinib = compound: C[C@@H](Oc1cc(-c2cnn(C3CCNCC3)c2)cnc1N)c1c(Cl)ccc(F)c1Cl [crizotinib]
Method in brief: as §1

[2] = compound: C[C@@H]1COCCN1C2=NC(=NC(=C2)C3(CC3)S(=O)(=O)C)C4=C5C=CNC5=CC=C4
Method in brief: as §1

[3] = compound: C[C@H](C1=CC=C(C=C1)C(=O)NC2=C3C=CNC3=NC=C2)N
Method in brief: as §1

duvelisib = compound: C[C@H](Nc1ncnc2nc[nH]c12)c1cc2cccc(Cl)c2c(=O)n1-c1ccccc1 [duvelisib]
Method in brief: as §1

gandotinib = compound: Cc1cc(Nc2cc(CN3CCOCC3)c3nc(C)c(Cc4ccc(Cl)cc4F)n3n2)n[nH]1 [gandotinib]
Method in brief: as §1

tozasertib = compound: Cc1cc(Nc2cc(N3CCN(C)CC3)nc(Sc3ccc(NC(=O)C4CC4)cc3)n2)n[nH]1 [tozasertib]
Method in brief: as §1

[4] = compound: Cc1cc(SCc2sc(-c3ccc(C(F)(F)F)cc3)nc2C)ccc1OCC(=O)O
Method in brief: as §1

doramapimod = compound: Cc1ccc(-n2nc(C(C)(C)C)cc2NC(=O)Nc2ccc(OCCN3CCOCC3)c3ccccc23)cc1 [doramapimod]
Method in brief: as §1

ispinesib = compound: Cc1ccc(C(=O)N(CCCN)[C@@H](c2nc3cc(Cl)ccc3c(=O)n2Cc2ccccc2)C(C)C)cc1 [ispinesib]
Method in brief: as §1

Target	log2 fold change [1]	log2 fold change (crizotinib)	log2 fold change [2]	log2 fold change [3]	log2 fold change (duvelisib)	log2 fold change (gandotinib)	log2 fold change (tozasertib)	log2 fold change [4]	log2 fold change (doramapimod)	log2 fold change (ispinesib)
MTO1 isoform 6 (UniProt Q9Y2Z2)	inactive: 0.126	inactive: -0.006	inactive: 0.239	inactive: 0.096	inactive: 0.167	inactive: -0.057	inactive: -0.142	inactive: 0.002	inactive: -0.037	inactive: -0.153
MTRR isoform 1 (UniProt Q9UBK8)	inactive: 0.031	inactive: 0.021	inactive: 0.099	inactive: 0.009	inactive: 0.109	inactive: 0.022	inactive: -0.011	inactive: 0.059	inactive: 0.038	inactive: -0.184
MTMR3 (UniProt Q13615)	inactive: -0.013	inactive: -0.054	inactive: 0.11	inactive: 0.05	inactive: 0.039	inactive: 0.032	inactive: -0.112	inactive: -0.011	inactive: 0.034	inactive: -0.081
MSH3 (UniProt P20585)	inactive: -0.029	inactive: 0.045	inactive: -0.031	inactive: 0.047		inactive: -0.096		inactive: 0.024	inactive: 0.035	inactive: 0.088
MTREX (UniProt P42285)	inactive: 0.015	inactive: -0.025	inactive: 0.04	inactive: 0.025	inactive: -0.005	inactive: -0.108	inactive: -0.031	inactive: 0.034	inactive: -0.041	inactive: 0.005
MTHFD2 (UniProt P13995)	inactive: 0.023	inactive: -0.071	inactive: 0.05	inactive: -0.018	inactive: 0.003	inactive: -0.053	inactive: -0.041	inactive: -0.031	inactive: -0.025	inactive: -0.111
MYL6 isoform 2 (UniProt P60660)	inactive: 0	inactive: 0.023	inactive: 0.082	inactive: -0.072	inactive: 0.067	inactive: -0.011	inactive: 0.075	inactive: 0.002	inactive: -0.023	inactive: 0.04
MUL1 (UniProt Q969V5)	inactive: -0.023	inactive: 0.038	inactive: 0.078	inactive: -0.006		inactive: -0.018		inactive: -0.02	inactive: 0.056	inactive: -0.01
MRPS23 (UniProt Q9Y3D9)	inactive: 0.014	inactive: -0.028	inactive: 0.095	inactive: 0.136	inactive: -0.021	inactive: -0.134	inactive: 0.011	inactive: 0.084	inactive: 0.034	inactive: -0.214
MRTO4 (UniProt Q9UKD2)	inactive: -0.14	inactive: 0.005	inactive: -0.37	inactive: 0.026	inactive: -0.138	inactive: 0.241	inactive: 0.147	inactive: 0.043	inactive: 0.161	inactive: -0.101
MYCBP2 (UniProt O75592)	inactive: 0.057	inactive: 0.107	inactive: -0.155	inactive: 0.017	inactive: -0.454	inactive: 0.089	inactive: -0.045	inactive: -0.03	inactive: 0.225	inactive: -0.359
MRS2 (UniProt Q9HD23)	inactive: 0.006	inactive: 0.001	inactive: 0.002	inactive: 0.03	inactive: 0.031	inactive: -0.076	inactive: -0.003	inactive: -0.018	inactive: -0.001	inactive: 0.088
MRPS33 (UniProt Q9Y291)	inactive: 0.041	inactive: 0.005	inactive: 0.005	inactive: 0.168		inactive: -0.034		inactive: 0.121	inactive: 0.034	active: -0.485
MTA1 (UniProt Q13330)	inactive: -0.018	inactive: -0.016	inactive: 0.038	inactive: -0.104	inactive: -0.012	inactive: 0.038	inactive: 0.175	inactive: 0.076	inactive: -0.038	inactive: -0.11
MTHFS (UniProt P49914)	inactive: 0.103	inactive: -0.026	inactive: 0.117	inactive: -0.098		inactive: -0.021		inactive: 0.037	inactive: 0.013	inactive: 0.046
MVK (UniProt Q03426)	inactive: 0.008	inactive: 0.038	inactive: 0.026	inactive: -0.028	inactive: 0.04	inactive: -0.069	inactive: -0.002	inactive: -0.001	inactive: 0.007	inactive: 0.029
MRPS18C (UniProt Q9Y3D5)	inactive: -0.039	inactive: 0.015	inactive: 0.082	inactive: 0.146	inactive: -0.009	inactive: -0.38	inactive: -0.131	inactive: -0.058	inactive: -0.094	inactive: -0.249
MYO9A isoform 4 (UniProt B2RTY4)	inactive: -0.074	inactive: -0.055	inactive: -0.013		inactive: -0.084	inactive: -0.309		inactive: 0.113	inactive: 0.027	
MTCH2 (UniProt E9PIE4)	inactive: -0.025	inactive: 0.11	inactive: 0.03		inactive: 0.032			inactive: 0.007	inactive: -0.058	
MVB12A (UniProt Q96EY5)	inactive: 0.043	inactive: -0.005	inactive: 0.043		inactive: 0.131	inactive: -0.2	inactive: -0.104	inactive: 0.05	inactive: 0.042	inactive: -0.076
MRPS2 (UniProt Q9Y399)	inactive: -0.043	inactive: 0.078	inactive: 0.032	inactive: 0.048		inactive: -0.117		inactive: 0.022	inactive: -0.049	active: -0.352
MT-ND6 (UniProt P03923)	inactive: -0.095	inactive: 0.031		inactive: 0	inactive: 0.206		inactive: -0.077	inactive: -0.248	inactive: 0.135	
MRPS35 (UniProt P82673)	inactive: 0.004	inactive: -0.043	inactive: 0.016	inactive: 0.166		inactive: -0.039		inactive: 0.101	inactive: 0.005	active: -0.277
MT-ATP6 (UniProt P00846)	inactive: 0.041	inactive: 0.355	inactive: 0.225	inactive: 0.135		inactive: 0.143		inactive: -0.081	inactive: -0.038	inactive: 0.076
MT1G (UniProt P13640)	inactive: -0.103	inactive: 0.047		inactive: -0.081	inactive: -0.074	inactive: -0.005	inactive: 0.009	inactive: -0.039	inactive: -0.141	inactive: 0.134
MYH10 isoform 3 (UniProt P35580)	inactive: -0.013	inactive: -0.038	inactive: 0.056	inactive: -0.026		inactive: -0.004		inactive: 0.013	inactive: 0.009	inactive: 0.01

An excerpt taken from the entries so far, for reference:
Target	log2 fold change [1]	log2 fold change (crizotinib)	log2 fold change [2]	log2 fold change [3]	log2 fold change (duvelisib)	log2 fold change (gandotinib)	log2 fold change (tozasertib)	log2 fold change [4]	log2 fold change (doramapimod)	log2 fold change (ispinesib)
MRPS35 (UniProt P82673)	inactive: 0.004	inactive: -0.043	inactive: 0.016	inactive: 0.166		inactive: -0.039		inactive: 0.101	inactive: 0.005	active: -0.277
MT-ATP6 (UniProt P00846)	inactive: 0.041	inactive: 0.355	inactive: 0.225	inactive: 0.135		inactive: 0.143		inactive: -0.081	inactive: -0.038	inactive: 0.076
